Reference: patent US10501479B2, “Benzenesulfonyl-asymmetric ureas and medical uses thereof” (HELSINN HEALTHCARE SA, priority 2016, dated 2019)
Read-outs that look alike come from different tables or passages of the source. The match of structure and compound is tentative.

Sequences of proteins named here, by UniProt entry; tags and fusion partners are left off.
UniProt Q92847, whole entry: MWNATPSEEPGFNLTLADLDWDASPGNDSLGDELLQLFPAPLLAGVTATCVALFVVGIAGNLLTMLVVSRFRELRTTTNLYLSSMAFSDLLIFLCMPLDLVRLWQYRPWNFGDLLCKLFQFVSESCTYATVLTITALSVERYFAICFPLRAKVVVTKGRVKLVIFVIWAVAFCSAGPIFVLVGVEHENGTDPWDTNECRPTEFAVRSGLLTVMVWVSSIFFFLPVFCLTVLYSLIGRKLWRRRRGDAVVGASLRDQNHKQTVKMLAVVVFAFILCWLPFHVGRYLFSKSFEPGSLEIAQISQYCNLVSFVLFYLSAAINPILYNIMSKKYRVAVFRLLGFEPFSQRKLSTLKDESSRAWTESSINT

What was measured:
[1] = target: T1, GHSR-1a (HEK293/GHSR1a cell line) (Homo sapiens, UniProt Q92847); assay: Ghrelin antagonist potency (IC50) with calcium FLIPR assay, ghrelin 10 nM
Procedure: (§1) Evaluation of Ghrelin Agonist (EC50) and Antagonist Potency (IC50) with Calcium FLIPR Assay:
(§2) The intracellular calcium assay was carried out in a 384-well format FLIPR™ (Molecular Device) HEK293/GHSR1a cell line. Cells were seeded 24 hr prior to the experiments at an optimal density per well. Preincubation with selected calcium dye lasted for 30-60 min at room temperature or 37° C. Test compounds, dissolved in DMSO, were added at the appropriate time and incubated for 15 min followed by the addition of ghrelin with FlexStation or FLIPR. Relative fluorescence was monitored by the FLIPR™ Molecular Device. EC50 and IC50 values were estimated from dose-response data using GraphPad Prism software. To check for GHSR-1a agonism, the compound was added at t=20 sec. and the calcium response was followed for 2 minutes. To check for GHSR-1a antagonism, the compound and Ghrelin (10 nM) were added to the cells at t=20 sec. and the calcium response was measured for 2 minutes. The potency of the antagonist was calculated by its ability to reduce the ghrelin response. Dose-response curves were made for relevant antagonists.

[2] = target: recombinant human ghrelin receptor (HEK293/GRLN) (Homo sapiens, UniProt Q92847); assay: Ghrelin inverse agonist potency (EC50) with IP-1 (IP-One HTRF) assay; conditions: IP-1 assay
Procedure: Evaluation of Ghrelin Inverse Agonist Potency (EC50) with IP-1 Assay:
HEK293 cells stably expressing recombinant human ghrelin receptor (HEK293/GRLN) were used in the IP-One HTRF assay. One day before the test, cells were seeded at a density of 1.5×10^4/well in a Matrigel® coated 384-well plate with 30 μL of complete Dulbecco's Modified Eagle's Medium and incubated at 37° C. in 5% CO2 for 18-22 hours. On the test day, the medium was removed by centrifugation at 600 rpm for 30 seconds, and 20 μL of stimulation buffer containing 1x tested compound was added with Bravo (Agilent technologies). The plate was then incubated at 37° C. 5% CO2 for 1 hour. After the incubation, 5 μL of IP1-d2 and 5 μL of Tb-Cryp were added to all wells using multidrop Combi(Thermo). After additional incubation at room temperature for 1 hour, the plates were read on Envision with 620 and 665 (Perkin Elmer).

[3] = target: T1, GHSR-1a (HEK293/GHSR1a cell line); assay: Ghrelin agonist potency (EC50) with calcium FLIPR assay; conditions: for EC50/EMax: EC50 (Activity): ghrelin agonist potency
Procedure: as §1, §2

[4] = Metabolic stability in mouse liver microsomes
Procedure: (§3) Metabolic Stability Study
(§4) The metabolic stability of compounds in human, dog, rat and mouse liver microsomes was performed according the experimental conditions reported below:
(§5) • a) Prepare the following 5 stock solutions: • 1. Test compound stock solutions: dilute 10 mM solution of dextromethorphan (Dtr) in DMSO, 10 mM solution of diphenhydramine (DPA) in DMSO, 10 mM solution of omeprazole (Ome) in DMSO, 10 mM solution of verapamil (Ver) in DMSO, and 10 mM of an inverse agonist compound in DMSO to 0.25 mM solution each with acetonitrile/water (70/30). • 2. Buffer: 100 mM potassium phosphate Buffer (PBS) at pH 7.4 • 3. Liver microsomes (20 mg/ml): Thaw in 37° C. water bath quickly • 4. 2000 μL: of NADPH regenerating system (1.3 mM). Place this system on ice before use:
• 5. […]

[5] = Metabolic stability in human liver microsomes
Procedure: as §3, §4, §5
• 5. […]

[6] = Animal PK study in mouse via i.v., p.o. and s.c. administration
Procedure: • 5. Quench solution: acetonitrile with IS for LC-NIS/NIS analysis • b) Dilute the 20 mg/mL stock liver microsomes to 0.628 mg/mL of protein with 100 mM PBS. • c) Aliquot 398 μL of microsomes protein mixture (0.628 mg/mL) into the incubation plate and place the plate on ice. • d) Spike 2 μL of a substrate stock solution into the incubation wells filled with 398 μL of the protein mixture in order to obtain a test compound concentration of 1.25 μM in each well. • e) Pipette 80 μL of the test compound and microsomes protein mixture into the wells of a stop plate pre-filled with 300 μL of cold quench solution and 20 μL of NADPH regenerating system. The test compound concentration in the wells, measured by LC-MS/MS, represents the concentration at time=0. • f) To determine the test compound concentration when t≠0, pre-incubate the NADPH regenerating system and the incubation plate containing the remaining 320 μL of incubation mixture (microsomes protein and test compound) for 5 minutes at 37° C. • g) Start the incubation reaction by adding 80 μL NADPH regenerating system to each well containing the remaining 320 μL incubation mixture. • h) After 10 min., 30 min., and 90 min. of incubation at 37° C., transfer 100 μL of the incubation mixture (microsomes protein, test compound, and NADPH) into the wells of a stop plate pre-filled with 300 μL of the cold quench solution. Shake well. • i) Centrifuge the stop plate at 5000×g for 10 minutes. Collect and dilute the supernatant 3 times with distilled water. Sample and analyze the test compound concentration for all the wells by LC-MS/MS. Animal PK Studies via i.v. (intravenous), p.o. (orally) and s.c. (subcutaneous) administrations
All treated animals received a single dose of a test compound (either through i.v., p.o., or s.c. administration) according to the regimen shown in the following table:
For oral dose groups, appropriate amount of test compound was prepared in the following formulation carrier: 1% DMSO (increase to 5% maximum if necessary) and 0.5% Methycellulose. Each mouse or rat received by oral gavage 10 mL/kg of the formulation mixture.
For i.v. and s.c dose groups, appropriate amount of test compound was dissolved in 1% DMSO (increase to 5% maximum if necessary), 99% of 20% HP-β-Cyclodextron (w/v). The pH was adjusted accordingly. Each mouse or rat received 5 mL/kg of the formulation mixture. i.v. dose was administered by tail vein injection. Subcutaneous injection was administered over the shoulders, into the loose skin over the neck. At designated time points (e.g., i.v. and s.c.: 0.083, 0.25, 0.5, 1, 2, 4, 8 and 24 hrs; p.o.: 0.25, 0.5, 1, 2, 4, 8 and 24 hrs), systemic samples of blood (50 μL in mouse or 500 μL in rat) were collected by puncture (submandibular vein in mouse or jugular vein in rat) into vacutainers containing EDTA-K2 as anti-coagulant. The blood was centrifuged at 6000 rpm for 8 min at 4° C. to obtain plasma. All plasma samples were stored at −20° C. All plasma samples were added to acetonitrile for protein precipitation and quantitatively analyzed by LC-MS/MS.

## CC(NC(=O)Nc1ccc(S(=O)(=O)CC2=CC3CCC(C2)N3C)cc1)c1cccc(Cl)c1Cl (centres unmarked)
[1]; read-out: Activity IC50, ghrelin antagonist potency
  IC50: 7470 nM
[2]; read-out: Activity EC50, ghrelin inverse agonist potency
  EC50: 1410 nM

## C[C@H](NC(=O)Nc1ccc(S(=O)(=O)Cc2ccc3c(c2)CNCC3)cc1)c1cccc(Cl)c1Cl
[1]; read-out: IC50 (Activity), ghrelin antagonist potency, tested form: HCl
  IC50: 4.1 nM
[3]; tested form: HCl
  EC50/EMax: EC50 (Activity): > 30000 nM
[2]; read-out: EC50 (Activity), inverse agonist potency, tested form: HCl
  EC50: 18.4 nM

## CC(NC(=O)Nc1ccc(S(=O)(=O)Cc2ccc(CN(C)C)cc2)cc1)c1ccccc1 (centres unmarked)
[1]; read-out: Activity IC50 (ghrelin antagonist potency), HEK293/GHSR1a, ghrelin 10 nM
  IC50: 298 nM
[3]; read-out: Activity EC50/EMax: EC50 (ghrelin agonist potency), HEK293/GHSR1a
  EC50: > 30000 nM
[2]; read-out: Activity EC50 (ghrelin inverse agonist potency), HEK293/GRLN
  EC50: 282 nM

## COc1ccc([C@H](C)NC(=O)Nc2ccc(S(=O)(=O)Cc3ccc4c(c3)CCNC4)cc2)c(Cl)c1Cl
[4]
  Metabolic Stability Study M = mouse: H = <10 M = <10 R = not reported D = not reported μL/min/mg
[1]; read-out: IC50 (Activity), ghrelin antagonist potency
  IC50: 34.7 nM
[3]
  EC50/EMax: EC50 (Activity): > 30000 nM
[2]; read-out: EC50 (Activity), inverse agonist potency
  EC50: 25.7 nM
[5]
  Metabolic Stability Study H = human: H = <10 M = <10 R = not reported D = not reported μL/min/mg
[6]
  PK F: 7.91%
[6]; i.v.
  PK CLiv: 186.2 mL/min/kg
  PK Vdiv: 16.35 L/kg
  PK t1/2iv: 1.01 h
[6]; p.o.
  PK CLpo: 2205 mL/min/kg
  PK Vdpo: 349.6 L/kg
  PK t1/2po: 1.83 h
